Results taken from the supplement of paper PMC11006884.
Shown are results outside the selection of targets with a hit, which stands elsewhere. The data scatter; read single values as rough. The list shows a part of the results, in another mix than the full data.

These targets were tested with COC(=O)/C=C/c1ccccc1 [methyl cinnamate] (assay: log2 ratio of iodoacetamide-alkyne labeling of the cysteine site, DMSO over compound (competition); higher = stronger covalent engagement of the cysteine by the compound, active = 1 or more). Conditions: 500 µM; treatment time 1 h; system: HEK293T cell lysate.
Method in brief: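 The log2 competition ratio per cysteine is defined as mean reporter intensity in control channels over mean reporter intensity in compound channels. Lysate from HEK293T cells (2 mg/mL) received electrophile (500 µM) or vehicle for 1 h at ambient temperature, followed by iodoacetamide alkyne for 1 h. Samples were clicked to sCIP-TMT reagents, pooled, trypsin-digested overnight at 37 °C, streptavidin-enriched, acid-eluted and run on Orbitrap Eclipse LC-MS/MS with FAIMS, with quantification in FragPipe. Three replicates with duplicate channels were used, and any cysteine quantified in only one replicate was excluded.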

log2 ratio of iodoacetamide-alkyne labeling, inactive:
UniProt Q14574_C804 0.281, UBXN2B C41 (UniProt Q14CS0) 0.0924, UniProt Q14574_C471 0.00547, UniProt Q14004_C987 -0.0425, ZNF638 C1654 (UniProt Q14966) 0.127, FHL1 C65 (UniProt Q13642) -0.142, MDC1 C1720 (UniProt Q14676) -0.0874, KPNB1 C455 (UniProt Q14974) 0.169, GAPVD1 C1220 (UniProt Q14C86) 0.192, PRPSAP1 C19 (UniProt Q14558) -0.00286, CHD4 C1468 (UniProt Q14839) 0.195, BMS1 C101 (UniProt Q14692) 0.144, MORC3 C619 (UniProt Q14149) 0.147, MAP7 C644 (UniProt Q14244) 0.273, WRN C171 (UniProt Q14191) 0.033, EIF3A C58 (UniProt Q14152) 0.207, ZNF638 C1930 (UniProt Q14966) -0.273, BOP1 C373 (UniProt Q14137) -0.149, HLTF C812 (UniProt Q14527) 0.0644, ITPR3 C2668 (UniProt Q14573) 0.113, MDC1 C1742 (UniProt Q14676) -0.033, DYNC1H1 C3089 (UniProt Q14204) 0.17, PPP2R5D C17 (UniProt Q14738) 0.551, SPTAN1 C956 (UniProt Q13813) 0.111, TUBB3 C124 (UniProt Q13509) 0.223, UniProt Q14197_C82 0.0622, SQSTM1 C331 (UniProt Q13501) 0.27, DGKZ C540 (UniProt Q13574) -0.175, EIF4EBP2 C73 (UniProt Q13542) -0.108, TTLL12 C642 (UniProt Q14166) -0.236, CUL3 C187 (UniProt Q13618) -0.0629, HLTF C461 (UniProt Q14527) 0.272, DCTN1 C1252 (UniProt Q14203) 0.275, UniProt Q13885_C303 0.138, SQSTM1 C113 (UniProt Q13501) 0.136, EIF4EBP1 C7 (UniProt Q13541) 0.505, FHL1 C150 (UniProt Q13642) -0.0485
